No constants are given. Whether binding was seen depends on the method and setting. Some entries that bind do so weakly or less than the wild type.

By UniProt entry, the sequences of proteins in these tests, tags left out. Where a name states a change or a piece, a line headed by the entry shows the natural chain unless it says otherwise.
UniProt P30550: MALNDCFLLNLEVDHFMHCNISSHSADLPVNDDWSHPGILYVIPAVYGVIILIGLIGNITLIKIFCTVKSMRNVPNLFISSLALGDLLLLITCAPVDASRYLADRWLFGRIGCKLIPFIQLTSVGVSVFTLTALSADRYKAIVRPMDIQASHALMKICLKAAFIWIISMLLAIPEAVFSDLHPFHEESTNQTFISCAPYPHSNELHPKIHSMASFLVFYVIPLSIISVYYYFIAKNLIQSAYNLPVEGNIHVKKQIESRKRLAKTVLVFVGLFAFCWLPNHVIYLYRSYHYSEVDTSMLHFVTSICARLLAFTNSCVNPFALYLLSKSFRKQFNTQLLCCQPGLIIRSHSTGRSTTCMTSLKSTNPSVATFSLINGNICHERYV
UniProt P84213: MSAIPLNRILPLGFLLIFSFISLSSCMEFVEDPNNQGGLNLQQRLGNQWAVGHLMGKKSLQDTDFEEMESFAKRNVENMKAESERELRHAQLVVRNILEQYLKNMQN

The target of test [1] is Gastrin-releasing peptide receptor (GRPR) (human (endogenous in DMS79)) (UniProt P30550). Briefly: flow cytometry on cells; DMS79 cells cultured under normoxia or hypoxia for 24 h, incubated with BBN-FITC at 3, 5 or 10 µM for 30 min at room temperature, washed with PBS; mean fluorescence intensity; only the binder purified. For orientation: In flow cytometry, cells or beads pass a laser one at a time.

The target is the same in test [2]. Briefly: flow cytometry on cells; competition: DMS79 cells pre-incubated under normoxia or hypoxia for 24 h, BU peptide (5-10 µM) for 1 h, then BBN-FITC (10 µM) for 30 min at 37 °C in the dark, washed twice with cold PBS; MFI normalised to the untreated control; only the binder purified.

QQRLGNQWAVGHLM (peptide, UniProt P84213 42-55, FITC label (position not given)) [fluorescein isothiocyanate-labelled bombesin (BBN-FITC)]: the binding entry in test [1] and in test [2] was “binds” in each case.
